The campaign covered roughly 400,000 compounds. About 13,000 (3.2%) were called active. This list was built around the results that the source calls inconclusive (neither active nor inactive); the mix of calls is not that of the screen. Calls come from the whole dose curve; as a rule, active = well fitted cell-killing curve with a large enough effect; inconclusive = small, poorly fitted or top-dose-only effect, or effect the other way; inactive = flat fitted curve, though single readings scatter. Potencies of inconclusive entries are doubtful fits and often do not repeat. Where a structure was tested more than once in an assay, its records may differ in their call.
Assay: qHTS assay for MDR1-selective chemotherapeutics: Primary screen using the drug-selected MDR subline cells KB-V1; note: nearly all actives have a fitted effect of over 60% in size
Settings: KB-V1 MDR cells viability, CellTiter-Glo, 72 h; series mostly up to 46.1 µM
Method in brief: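 KB-V1 MDR subline cells in DMEM (phenol-red free, 10% FBS) exposed to compounds in qHTS concentration series for 72 h at 37 degrees C. Viability read by CellTiter-Glo luminescence; concentration-effect curves fitted after normalization and correction.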
For `COc1ccc(N2CCN(C(CNC(=O)C(=O)NCc3cccnc3)c3ccco3)CC2)cc1` (stereo not drawn), the Potency was inconclusive: 7.31 µM [cytotoxic, partial curve, poor fit].
In the case of `O=C(NC(=S)Nc1ccc(O)cc1)C1CCCC1`, the Potency is reported as inconclusive: 18.4 µM [rising, partial curve].
For `Cc1ccc2nc(N(CCN(C)C)C(=O)/C=C/c3cccs3)sc2c1`, the Potency was “inactive”.
With `N#C/C(=C\c1ccc(F)cc1)C(=O)Nc1ccccn1` the Potency was “inactive”.
For `CCOc1cccc(C(=O)NNC(=O)C2C3C=CC(C3)C2C(=O)O)c1` (stereo not drawn), the Potency was inconclusive: 20.6 µM [rising, single point].
For `O=C(c1cccc(F)c1)N1CCCN(C(=O)c2cccc(F)c2)CC1`, the Potency was “inactive”.
In the case of `CCOc1ccc(OCC)c(NC(=O)C2CCN(c3ncccn3)CC2)c1`, the Potency is reported as active: 9.2 µM.
In the case of `COc1ccc(CCNC(=O)c2cc(-c3ccco3)nc3ccccc23)cc1`, the Potency is reported as inconclusive: 6.51 µM [cytotoxic, partial curve, poor fit].
With `COC(=O)c1cc(C(=O)Nc2ccc(C)cn2)cc([N+](=O)[O-])c1` the Potency was inconclusive: 23.1 µM [cytotoxic, partial curve, poor fit].
With `COC(=O)/C=C1/S/C(=N/N=C/c2ccco2)NC1=O` the Potency was inconclusive: 25.9 µM [rising, partial curve].
In the case of `C[C@]12c3[nH]c4ccccc4c3CCN1C(=O)C(CC(=O)NCCc1ccccn1)C[C@@H]2C(=O)N1CCCCC1` (stereo partly drawn), the Potency is reported as “inactive”.
For `O=C(c1cc(F)ccc1F)C1CCCN(C(=O)c2ccc(F)cc2Cl)C1` (stereo not drawn), the Potency was active: 11.6 µM.
For `CCc1ccc(OCC(=O)Nc2ccc(Cl)c(-c3nc4cc(C)cc(C)c4o3)c2)cc1`, the Potency was “inactive”.
In the case of `Cc1nc2ccccc2c2oc(C(=O)NCCCN3CCC(C)CC3)cc12`, the Potency is reported as “inactive”.
In the case of `Cc1ccc(Cl)cc1N1CCN(S(=O)(=O)c2ccc3oc(=O)c4ncn(C)c4c3c2)CC1`, the Potency is reported as “inactive”.
With `CCCn1nnnc1-c1cccc(Cl)c1` the Potency was inconclusive: 16.4 µM [cytotoxic, single point].
In the case of `CN(C)C(CNC(=O)CCOc1ccccc1)c1ccco1` (stereo not drawn), the Potency is reported as inconclusive: 16.4 µM [rising, single point].
In the case of `CN1C(=O)C(c2ccccc2[N+](=O)[O-])C(=O)c2ccccc21` (stereo not drawn), the Potency is reported as “inactive”.
For `Cc1nc2ncnn2c(N2CCN(C(c3ccccc3)c3ccccc3)CC2)c1C`, the Potency was active: 23.1 µM.
For `C/C(=N/NC(=O)c1cccs1)c1ccc(NC(=O)COc2ccc(Cl)cc2)cc1`, the Potency was “inactive”.
In the case of `COc1cc(C(c2c(NC(=O)c3ccco3)sc(C)c2C)N2CCOCC2)cc(OC)c1OC` (stereo not drawn), the Potency is reported as inconclusive: 8.2 µM [cytotoxic, partial curve, poor fit].
In the case of `COc1ccccc1C(=O)CSc1nccn1C`, the Potency is reported as “inactive”.
With `CCN(CC)CC(=O)Nc1cc(N(C)C)nc2ccccc12` the Potency was inconclusive: 11.6 µM [cytotoxic, partial curve].
In the case of `N#Cc1ccc(C(=O)Nc2cccc(NC(=O)c3ccco3)c2)c(F)c1`, the Potency is reported as inconclusive: 9.2 µM [cytotoxic, partial curve, poor fit].
With `CCNC(=S)NNC(=O)c1ccccn1` the Potency was active: 11.6 µM.
In the case of `Cc1cc(C)cc(C(=O)NC(=S)Nc2ccc3c(c2)OCCO3)c1`, the Potency is reported as active: 4.61 µM.
With `Cc1ccc(-c2csc(Cc3nc(-c4ccc5c(c4)CCC(=O)N5)cs3)n2)cc1` the Potency was inconclusive: 2.59 µM [cytotoxic, full curve, poor fit].
With `O=C(OCC(=O)N1CCN(c2cccc(Cl)c2)CC1)c1ccco1` the Potency was inconclusive: 29.1 µM [cytotoxic, single point].
With `CCN(CC)C(=O)CSc1ncnc2sccc12` the Potency was “inactive”.
With `CCOc1ccc(C(=O)/C=C/c2ccc(OC)c(OC)c2)cc1` the Potency was inconclusive: 20.6 µM [cytotoxic, single point].
With `c1ccc(C(Nc2cccnc2)c2ccccc2)cc1` the Potency was active: 20.6 µM.
In the case of `O=C(NCC(=O)N1CCN(C(=O)c2ccccc2)CC1)c1ccc(Cl)cc1Cl`, the Potency is reported as “inactive”.
In the case of `COc1ccc(C)cc1S(=O)(=O)n1c([N+](=O)[O-])cnc1C`, the Potency is reported as “inactive”.
For `O=C1N[C@@H](Cc2ccccc2)COC(=O)[C@H](Cc2ccc(F)cc2)C/C=C\C[C@@H]1CC(=O)N(CCO)Cc1ccccc1`, the Potency was “inactive”.
For `Cc1ccc(C(=O)Nc2nccs2)cc1S(=O)(=O)N1CCCCC1`, the Potency was inconclusive: 29.1 µM [cytotoxic, single point].
In the case of `Cc1csc(N/N=C/c2ccc([N+](=O)[O-])cc2)n1`, the Potency is reported as “inactive”.
In the case of `CCn1nc(NS(=O)(=O)c2ccc(NC(C)=O)cc2)c2cc3ccc(C)cc3nc21`, the Potency is reported as inconclusive: 8.2 µM [rising, partial curve, poor fit].
With `NC(=O)c1ccsc1NC(=O)COC(=O)Cc1ccccc1[N+](=O)[O-]` the Potency was “inactive”.
In the case of `COc1ccccc1CNC(=O)C(=O)NCC1OCCN1C(=O)c1cccs1` (stereo not drawn), the Potency is reported as inconclusive: 18.4 µM [cytotoxic, single point].
For `CN(C)c1ccc(C(=C2c3ccccc3-c3ccccc32)c2ccc(N(C)C)cc2)cc1`, the Potency was “inactive”.
For `C/C(=N\NC(=O)c1ccccc1)c1nc2ccccc2n1C`, the Potency was inconclusive: 29.1 µM [cytotoxic, single point].
In the case of `C(=C\c1sc(Nc2ccccc2)n[n+]1-c1ccccc1)/c1ccccc1`, the Potency is reported as inconclusive: 29.1 µM [cytotoxic, single point].
With `COc1ccc(CCn2c(C3CCCCC3)nc3c(c(=O)c4ccccc4n3C)c2=O)cc1` the Potency was active: 18.4 µM.
For `Cc1cc(C)c([N+](=O)[O-])cc1-c1ccc(/C=N/c2c(-c3ccco3)nc3ccccn23)o1`, the Potency was inconclusive: 29.1 µM [cytotoxic, single point].
For `CSCCC(NC(=O)c1ccccc1Br)C(=O)N1CCN(C/C=C/c2ccccc2)CC1` (stereo not drawn), the Potency was inconclusive: 18.4 µM [cytotoxic, single point].
In the case of `CSc1nnc(CCCCCCCCc2nnc(SC)o2)o1`, the Potency is reported as inconclusive: 10.3 µM [cytotoxic, partial curve].
With `CCC(C)NC(=O)c1cccc(OCc2c(C)noc2C)c1` (stereo not drawn) the Potency was inconclusive: 25.9 µM [cytotoxic, single point].
For `O=C(N/N=C/c1cccc(Oc2ccccc2)c1)c1ccccc1Br`, the Potency was inconclusive: 18.4 µM [cytotoxic, single point].
For `O=C(NCC(O)c1ccccc1)c1ccc(Cl)c(S(=O)(=O)N2CCCC2)c1` (stereo not drawn), the Potency was inconclusive: 32.6 µM [cytotoxic, single point].
For `COc1ccc2c(COC(=O)CNC(=O)C34CC5CC(CC(C5)C3)C4)cc(=O)oc2c1`, the Potency was inconclusive: 29.1 µM [cytotoxic, single point].
In the case of `O=C(CSc1nc2c([nH]c3ccccc32)c(=O)n1-c1cccc(C(F)(F)F)c1)N1CCCC1`, the Potency is reported as inconclusive: 29.1 µM [rising, single point].
With `FC(F)(F)c1cccc(NC(=S)N(CCCN2CCCC2)Cc2cccn2Cc2ccc(Cl)cc2)c1` the Potency was inconclusive: 16.4 µM [cytotoxic, partial curve, poor fit].
For `CCOC(=O)c1cccc(NC(=O)C2(S(=O)(=O)c3ccc(C)cc3)CC2)c1`, the Potency was active: 18.4 µM.
In the case of `O=C(Nc1ccccc1-c1ccccc1)c1cccc([N+](=O)[O-])c1`, the Potency is reported as inconclusive: 29.1 µM [cytotoxic, single point].
For `COCCn1c(-c2ccc(-c3ccccc3Cl)o2)nc2c1c(=O)[nH]c(=O)n2CC(C)C`, the Potency was “inactive”.
With `COc1ccc(-c2nc3n(n2)C(c2ccncc2)C(C(N)=O)=C(C)N3)cc1` (stereo not drawn) the Potency was “inactive”.
For `CC(=O)c1ccc(NC(=O)/C=C/c2ccc(C)o2)cc1`, the Potency was inconclusive: 16.4 µM [rising, single point].
In the case of `O=C(c1cc(S(=O)(=O)N2CCN(c3ccccc3)CC2)ccc1Cl)N1CCCCCCC1`, the Potency is reported as inconclusive: 14.6 µM [cytotoxic, partial curve, poor fit].
In the case of `C/[N+]([O-])=C\c1cccc(OCCN2CCN(c3ncc(C(F)(F)F)cc3Cl)CC2)c1`, the Potency is reported as “inactive”.
In the case of `Cc1cccc(COC[C@H](Cc2ccccc2)N2CCN(C(=O)c3cccc(Cl)c3)CCC2=O)c1`, the Potency is reported as active: 18.4 µM.
In the case of `Cc1ccc(-c2nnn(CC(=O)N(Cc3cccs3)C(C(=O)NCC3CCCO3)c3ccco3)n2)o1` (stereo not drawn), the Potency is reported as inconclusive: 9.2 µM [cytotoxic, partial curve, poor fit].
In the case of `CCOC(=O)c1cnc(SCC(=O)OCC(=O)NC2CCS(=O)(=O)C2)nc1N` (stereo not drawn), the Potency is reported as inconclusive: 29.1 µM [rising, partial curve, poor fit].
With `C[C@H]1CN([C@@H](C)CO)C(=O)c2cc(Br)cnc2O[C@@H]1CN(C)S(=O)(=O)c1ccccc1` the Potency was “inactive”.
With `COc1ccc(Cn2c(C)c(C)c(C#N)c2NC(=O)Nc2ccc(Cl)cc2)cc1` the Potency was “inactive”.
In the case of `COc1ccc(F)c(CN2CCC(N3CCC(C(=O)N4CCOCC4)CC3)CC2)c1`, the Potency is reported as “inactive”.
For `Cc1nc2c(Br)c(C)nn2c2c1CCC2`, the Potency was “inactive”.
With `Cc1onc(-c2ccccc2)c1NC(=O)Nc1ccc(OC(F)F)cc1` the Potency was “inactive”.
For `NC(=S)N/N=C/c1cc([N+](=O)[O-])ccc1OCCOc1ccccc1`, the Potency was “inactive”.
In the case of `COc1cc(-c2csc(N3CCOCC3)n2)cc(OC)c1OC`, the Potency is reported as “inactive”.
For `CCc1cc2c(=O)c(-c3ccc4c(c3)OCCO4)c(C)oc2cc1OS(C)(=O)=O`, the Potency was inconclusive: 29.1 µM [cytotoxic, single point].
In the case of `Cc1ccc(C(=O)CN(CCCC(N)=O)S(=O)(=O)c2ccc([N+](=O)[O-])cc2)cc1`, the Potency is reported as “inactive”.
With `CCCCCCCCC1=NCCc2c1[nH]c1ccccc21` the Potency was “inactive”.
In the case of `C=CCNC(=S)N/N=C/c1ccc(-c2cccc([N+](=O)[O-])c2)o1`, the Potency is reported as inconclusive: 3.66 µM [cytotoxic, full curve].

Source: PubChem BioAssay AID1347076 (National Center for Advancing Translational Sciences (NCATS), 2019)
Potency is the fitted concentration of half-maximal effect.
